# Laboratory results: article PMC12025923 (Cells, 2025)
# Results are given in words; binding and its absence hold for the method and conditions named. Binding seen in cells or lysates may run through a third protein. Some results given as binding are weak or reduced against the parent protein; the word gives no strength. Sequences can lack the tags named with a protein.
# T1: wild-type 14-3-3γ-GFP (human) (UniProt P61981)
# T1 sequence: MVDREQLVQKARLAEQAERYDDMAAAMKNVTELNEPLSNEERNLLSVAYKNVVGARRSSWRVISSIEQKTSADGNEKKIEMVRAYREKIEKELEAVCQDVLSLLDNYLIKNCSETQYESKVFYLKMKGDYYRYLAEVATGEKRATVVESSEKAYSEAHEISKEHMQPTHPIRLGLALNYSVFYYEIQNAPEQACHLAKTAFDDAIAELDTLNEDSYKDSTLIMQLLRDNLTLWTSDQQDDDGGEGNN
# T2: GFP-SLP76 (human) (UniProt Q13094)
# T2 sequence: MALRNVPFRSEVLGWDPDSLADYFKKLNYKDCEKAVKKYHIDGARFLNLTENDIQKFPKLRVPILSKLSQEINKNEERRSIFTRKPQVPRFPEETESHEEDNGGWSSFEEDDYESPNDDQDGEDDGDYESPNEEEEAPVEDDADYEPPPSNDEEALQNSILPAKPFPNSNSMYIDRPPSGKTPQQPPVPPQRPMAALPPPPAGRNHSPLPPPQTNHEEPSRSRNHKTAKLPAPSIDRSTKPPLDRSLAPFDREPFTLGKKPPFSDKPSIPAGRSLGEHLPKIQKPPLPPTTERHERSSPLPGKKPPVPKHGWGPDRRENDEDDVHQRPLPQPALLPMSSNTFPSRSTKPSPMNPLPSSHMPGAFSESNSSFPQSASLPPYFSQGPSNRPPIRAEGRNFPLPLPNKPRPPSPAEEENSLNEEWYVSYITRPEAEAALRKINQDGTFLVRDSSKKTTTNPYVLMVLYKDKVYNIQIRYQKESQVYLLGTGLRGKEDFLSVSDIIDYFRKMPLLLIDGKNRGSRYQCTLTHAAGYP
# Assays:
# [1] = target: T1, wild-type 14-3-3γ-GFP (human); test: co-IP; N2a cells co-transfected with wt 14-3-3γ-GFP and wt or mutant 14-3-3γ-3xHA (1:1); lysate (50 mM Tris-HCl pH 8.0, 150 mM NaCl, 0.6% Triton X-100, 0.2% glycerol) with GST-tagged GFP-nanobody and Glutathione Sepharose 4B, overnight at 4 °C; blot for GFP and HA
# [2] = target: T2, GFP-SLP76 (human); test: co-IP; N2a cells co-transfected with 14-3-3γ-GFP (wt or R57C) and 3xHA-TH (1:2), or GFP-SLP76 and 14-3-3γ-3xHA (wt or R57C) (2:1); lysate with protease and phosphatase inhibitors, GST-tagged GFP-nanobody and Glutathione Sepharose 4B, 3 h at 4 °C; blot for GFP and HA
# [3] = target: T2, GFP-SLP76 (human); test: co-IP; as a2 but in human HEK293T cells (Figure S2G,H)
Binder,binding [1],binding [2],binding [3]
"14-3-3γ-R57G-3xHA (protein, UniProt P61981 1-247) MVDREQLVQKARLAEQAERYDDMAAAMKNVTELNEPLSNEERNLLSVAYKNVVGARGSSWRVISSIEQKTSADGNEKKIEMVRAYREKIEKELEAVCQDVLSLLDNYLIKNCSETQYESKVFYLKMKGDYYRYLAEVATGEKRATVVESSEKAYSEAHEISKEHMQPTHPIRLGLALNYSVFYYEIQNAPEQACHLAKTAFDDAIAELDTLNEDSYKDSTLIMQLLRDNLTLWTSDQQDDDGGEGNN",binds,–,–
"14-3-3γ-R57C-3xHA (protein, UniProt P61981 1-247) MVDREQLVQKARLAEQAERYDDMAAAMKNVTELNEPLSNEERNLLSVAYKNVVGARCSSWRVISSIEQKTSADGNEKKIEMVRAYREKIEKELEAVCQDVLSLLDNYLIKNCSETQYESKVFYLKMKGDYYRYLAEVATGEKRATVVESSEKAYSEAHEISKEHMQPTHPIRLGLALNYSVFYYEIQNAPEQACHLAKTAFDDAIAELDTLNEDSYKDSTLIMQLLRDNLTLWTSDQQDDDGGEGNN",binds,–,–
"14-3-3γ-R132C-3xHA (protein, UniProt P61981 1-247) MVDREQLVQKARLAEQAERYDDMAAAMKNVTELNEPLSNEERNLLSVAYKNVVGARRSSWRVISSIEQKTSADGNEKKIEMVRAYREKIEKELEAVCQDVLSLLDNYLIKNCSETQYESKVFYLKMKGDYYCYLAEVATGEKRATVVESSEKAYSEAHEISKEHMQPTHPIRLGLALNYSVFYYEIQNAPEQACHLAKTAFDDAIAELDTLNEDSYKDSTLIMQLLRDNLTLWTSDQQDDDGGEGNN",binds,–,–

# Other lines, results leading:
binding [1],binding [2],binding [3],Binder
binds,binds,binds,"wild-type 14-3-3γ-3xHA (protein, UniProt P61981 1-247) MVDREQLVQKARLAEQAERYDDMAAAMKNVTELNEPLSNEERNLLSVAYKNVVGARRSSWRVISSIEQKTSADGNEKKIEMVRAYREKIEKELEAVCQDVLSLLDNYLIKNCSETQYESKVFYLKMKGDYYRYLAEVATGEKRATVVESSEKAYSEAHEISKEHMQPTHPIRLGLALNYSVFYYEIQNAPEQACHLAKTAFDDAIAELDTLNEDSYKDSTLIMQLLRDNLTLWTSDQQDDDGGEGNN"
binds,–,–,"14-3-3γ-Y133S-3xHA (protein, UniProt P61981 1-247) MVDREQLVQKARLAEQAERYDDMAAAMKNVTELNEPLSNEERNLLSVAYKNVVGARRSSWRVISSIEQKTSADGNEKKIEMVRAYREKIEKELEAVCQDVLSLLDNYLIKNCSETQYESKVFYLKMKGDYYRSLAEVATGEKRATVVESSEKAYSEAHEISKEHMQPTHPIRLGLALNYSVFYYEIQNAPEQACHLAKTAFDDAIAELDTLNEDSYKDSTLIMQLLRDNLTLWTSDQQDDDGGEGNN"
